{
  "sequences": {"note": "Chains of the proteins cited; added tags and fusions are not shown. Residues count along the entry.", "UniProt P06278, 30-512": "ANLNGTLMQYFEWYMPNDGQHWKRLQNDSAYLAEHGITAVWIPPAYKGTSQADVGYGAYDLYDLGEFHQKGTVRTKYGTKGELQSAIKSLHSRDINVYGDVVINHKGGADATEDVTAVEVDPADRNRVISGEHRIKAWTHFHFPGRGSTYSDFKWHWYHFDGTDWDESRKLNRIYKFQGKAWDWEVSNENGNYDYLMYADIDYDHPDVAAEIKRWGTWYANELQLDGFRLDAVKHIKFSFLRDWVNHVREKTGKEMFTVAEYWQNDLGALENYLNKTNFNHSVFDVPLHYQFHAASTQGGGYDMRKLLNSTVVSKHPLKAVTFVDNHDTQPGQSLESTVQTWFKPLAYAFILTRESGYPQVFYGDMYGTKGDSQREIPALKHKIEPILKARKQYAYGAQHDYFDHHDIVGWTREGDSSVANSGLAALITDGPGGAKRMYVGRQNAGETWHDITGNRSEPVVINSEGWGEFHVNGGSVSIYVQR"},
  "source": "patent US4717662A",
  "about": "(priority 1985, dated 1988)",
  "biological_target": "alpha-amylase (Bacillus licheniformis, UniProt P06278)",
  "note": "At least one structure is not confirmed: it was looked up by name or label, or the drawing left a doubt.",
  "data": [
    {"compound": "O=C(O)CCc1ccccc1", "note": "[Phenyl propionic acid, phenylpropionic acid]", "values": [
      {"measurement": "Half-Life 95° C., pH 5.8", "result": 12, "unit": "minutes"},
      {"measurement": "(-Δ G°) stabilization free energy, R T ln F", "setting": "95° C. (T = 368K), pH 5.8", "result": 1.4, "unit": "K cal/mole"},
      {"measurement": "t 1/2", "setting": "95° C., pH 5.8, salt added to 1.22 M, diluted 1×100", "result": 12.0, "unit": "min"}
    ]}
  ]
}
